According to patent US10907212B2, “Inhibitors of cell adhesion” (Regents of the University of Minnesota, priority 2016, dated 2021):
Some results were stated once for a whole list of compounds, not compound by compound. Some ranges recur; such a range may be that of the whole group of compounds.

Each substance was assayed on adhesion of NIH:OVCAR5-N4-over cells to recombinant human Nectin-1 extracellular domain (assay: Inhibition of NIH:OVCAR5-N4-over cell adhesion to recombinant Nectin-1 by synthetic nectin peptides). Details: 150 μg/ml peptide, 30 min pre-incubation; 0.5 μg/well Nectin-1; 30 min adhesion; relative to DMSO control.
Assay type: cell-based
Procedure: Black, clear-bottom 96-well microtiter plates (Corning, Imported Costar, Corning, N.Y.) were coated with recombinant human Nectin-1 extracellular domain (R&D Systems), recombinant human Nectin-4 extracellular domain (R&D Systems), mouse laminin (Invitrogen™), or bovine serum albumin (BSA; Probumin Diagnostic Grade, MilliPore) diluted in PBS. Covered plates were incubated overnight at 37° C. in a humidified incubator. After washing with PBS plus Ca^2+/Mg^2+ containing 2 mg/ml ovalbumin (Sigma-Aldrich), the plates were blocked for 1 hat 37° C. with 1% BSA in PBS without Ca^2+/Mg^2+. Confluent monolayers of NIH:OVCAR5 cells or NIH:OVCAR5-N4-over cells were detached with Accutase, and then filtered through a 40 μm cell strainer (BD Biosciences, San Jose, Calif.) to remove cell aggregates. The single cells were stained with CellTracker Green CMFDA (5-chloromethylfluorescein diacetate; Invitrogen™) according to the manufacturer's protocol. After washing the plate, 30,000 cells were added to each well in 50 μl of RPMI 1640 media containing 2 mg/ml ovalbumin and allowed to adhere for 15-60 min at 37° C. Plates were vigorously washed four times and read in a BioTek Synergy fluorescent microplate reader (BioTek, Winooski, V A). Experiments were conducted in triplicate.
Microtiter plates coated with recombinant Nectin-1 as described above were pre-incubated for 30 min at room temperature with 150 μg/ml Nectin-4 peptides in PBS in triplicate. CMFDA-stained NIH:OVCAR5-N4-over cells were then added to the wells and cell adhesion was quantified as described above. In parallel studies, CMFDA-stained NIH:OVCAR5-N4-over cells were pre-incubated for 30 min at room temperature with 150 μs/ml Nectin-1 peptides in PBS in triplicate, and then the cells and peptides were added to the 96-well plate. […] Experiments were conducted in triplicate. Peptides were screened once and selected peptides were repeated two times.
Peptides synthesized from the extracellular domains of Nectin-4 and Nectin-1 (Table 1) were screened in the cell adhesion assay to identify smaller regions on the nectins that may alter cell adhesion. A coating concentration of 0.5 μg/well of Nectin-1 and a 30 min incubation period for the NIH:OVCAR5-N4-over cells was used for the inhibition assay. Of the 57 peptides screened, three peptides from Nectin-4 (FIG. 3A; peptides N4-P10, N4-P18, N4-P22, and N4-P29) and four peptides from Nectin-1 (FIG. 3C; peptides N1-P1, N1-P17, N1-P20, and N1-P26) inhibited adhesion of the NIH:OVCAR5-N4-over cells by 50-100% compared to the control. The peptides that most interfered with cell adhesion were derived from sites on the nectins near the IgC domains (FIG. 3B), although one of the adhesion blocking Nectin-1 peptides was the most N-terminal peptide (FIG. 3C).

Substance	inhibition of adhesion of NIH:OVCAR5-N4-over cells to Nectin-1
NWYLQRMDVKLTCK-NH2 (C-terminal amide; AMIDATION 14 a c-terminal carboxamide (-NH2); listed as Homo sapiens) [Peptide 49]	50-100%
WTRLDGPLPSGVRV-NH2 (C-terminal amide; AMIDATION 14 a c-terminal carboxamide (-NH2); listed as Homo sapiens) [Peptide 22]	50-100%
QARLRLRVLVPPLP-NH2 (C-terminal amide; AMIDATION 14 a c-terminal carboxamide (-NH2); listed as Homo sapiens) [Peptide 10]	50-100%
VNITEFPYTPSPPEHGRRA-NH2 (C-terminal amide; AMIDATION 19 a c-terminal carboxamide (-NH2); listed as Homo sapiens) [Peptide 55]	50-100%
TGNGIYINGRGHLV-NH2 (C-terminal amide; AMIDATION 14 a c-terminal carboxamide (-NH2); listed as Homo sapiens) [Peptide 29]	50-100%
HSQVVQVNDSMYGF-NH2 (C-terminal amide; AMIDATION 14 a c-terminal carboxamide (-NH2); listed as Homo sapiens) [Peptide 30]	50-100%
ACIVNYHMDRFKES-NH2 (C-terminal amide; AMIDATION 14 a c-terminal carboxamide (-NH2); listed as Homo sapiens) [Peptide 46]	50-100%
QRITHILHVSFLAE-NH2 (C-terminal amide; AMIDATION 14 a c-terminal carboxamide (-NH2); listed as Homo sapiens) [Peptide 18]	50-100%

The substances below were run on nectin 4 protein on NIH:OVCAR-5 cells (assay: Effect of peptides on anti-Nectin-4 antibody binding to cells as determined by flow cytometry). Details: 150 μg/mL peptide.
Assay type: cell-based, human
Procedure: Confluent monolayers of cells were detached from 75 cm^2 tissue culture flasks using Accutase cell dissociation buffer (Innovative Cell Technologies, San Diego, Calif.), washed, and labeled with mouse IgG or mAbs against Nectin-4 or Nectin-1 (2.5 μg/10^6 cells) in Flow Buffer [phosphate buffered saline (PBS) containing 2.5% newborn calf serum and 0.02% sodium azide] for 30 min at 4° C.. Cells were washed and incubated with goat anti-mouse IgG F(ab′)2 (Jackson ImmunoResearch, West Grove, Pa.), then washed again and incubated with streptavidin-allophycocyanin conjugate (Jackson ImmunoResearch, West Grove, Pa.) for 30 min each. Cells were washed and fixed in Flow Buffer containing 1% formaldehyde and analyzed in the University of Minnesota Flow Cytometry Resource with a BD Accuri™ C6 flow cytometer (BD Biosciences, San Jose, Calif.) using the Accuri™ software.
Briefly, NIH:OVCAR-5 cells that natively express a moderate amount of nectin 4 protein were incubated for 30 minutes in 150 μg/mL of soluble peptide in DMSO. After incubation, the cells were washed, and then triple antibody stained using mouse anti-nectin 4 (or IgG control) primary antibody, biotinylated goat anti-mouse secondary antibody, and streptavidin APC tertiary antibody. Finally, utilizing the University of Minnesota flow core's Accuri C6 flow cytometer, the relative antibody binding affinity for control and peptide-treated samples was quantitated and compared. Data was collected for each of the 57 peptides generated.

Substance	nectin-4 antibody binding compared to untreated control cells (in words)
NWYLQRMDVKLTCK-NH2 (C-terminal amide; AMIDATION 14 a c-terminal carboxamide (-NH2); listed as Homo sapiens) [Peptide 49]	insignificant changes vs controls
RLKGEAEYQEIRNP-NH2 (C-terminal amide; AMIDATION 14 a c-terminal carboxamide (-NH2); listed as Homo sapiens) [Peptide 43]	insignificant changes vs controls
ESLTLNVQYEPE-NH2 (C-terminal amide; AMIDATION 12 a c-terminal carboxamide (-NH2); listed as Homo sapiens) [Peptide 47]	insignificant changes vs controls
NPNGTVTVISRYRLV-NH2 (C-terminal amide; AMIDATION 15 a c-terminal carboxamide (-NH2); listed as Homo sapiens) [Peptide 44]	insignificant changes vs controls
PEVTIEGFDGNW-NH2 (C-terminal amide; AMIDATION 12 a c-terminal carboxamide (-NH2); listed as Homo sapiens) [Peptide 48]	insignificant changes vs controls
CKADANPPATEYHWT-NH2 (C-terminal amide; AMIDATION 15 a c-terminal carboxamide (-NH2); listed as Homo sapiens) [Peptide 50]	insignificant changes vs controls
LVPSREAHQQSLAC-NH2 (C-terminal amide; AMIDATION 14 a c-terminal carboxamide (-NH2); listed as Homo sapiens) [Peptide 45]	insignificant changes vs controls
NGKPPSVVSWETRL-NH2 (C-terminal amide; AMIDATION 14 a c-terminal carboxamide (-NH2); listed as Homo sapiens) [Peptide 42]	insignificant changes vs controls
ACIVNYHMDRFKES-NH2 (C-terminal amide; AMIDATION 14 a c-terminal carboxamide (-NH2); listed as Homo sapiens) [Peptide 46]	insignificant changes vs controls
GQDDKVLVATCTSANG-NH2 (C-terminal amide; AMIDATION 16 a c-terminal carboxamide (-NH2); listed as Homo sapiens) [Peptide 41]	insignificant changes vs controls
